In paper PMC5542696:
These are yes or no findings as the source states them, for the method shown. In cells and extracts the contact can be indirect. Some results given as binding are weak or reduced against the parent protein; the word gives no strength. Sequences can lack the tags named with a protein.

Tests used:
[1] = molecular target: T1, Rluc8-OGT (O-GlcNAc transferase fused to Renilla luciferase Rluc8) (UniProt O15294); assay: FRET or BRET; BRET saturation assay in living HEK-293T cells: constant Rluc8-OGT cDNA (300 ng/well), increasing OGA-YFP cDNA (10 to 1000 ng/well), with control or Tax plasmid; 48 h after transfection; curves fitted for a single binding site
T1 sequence: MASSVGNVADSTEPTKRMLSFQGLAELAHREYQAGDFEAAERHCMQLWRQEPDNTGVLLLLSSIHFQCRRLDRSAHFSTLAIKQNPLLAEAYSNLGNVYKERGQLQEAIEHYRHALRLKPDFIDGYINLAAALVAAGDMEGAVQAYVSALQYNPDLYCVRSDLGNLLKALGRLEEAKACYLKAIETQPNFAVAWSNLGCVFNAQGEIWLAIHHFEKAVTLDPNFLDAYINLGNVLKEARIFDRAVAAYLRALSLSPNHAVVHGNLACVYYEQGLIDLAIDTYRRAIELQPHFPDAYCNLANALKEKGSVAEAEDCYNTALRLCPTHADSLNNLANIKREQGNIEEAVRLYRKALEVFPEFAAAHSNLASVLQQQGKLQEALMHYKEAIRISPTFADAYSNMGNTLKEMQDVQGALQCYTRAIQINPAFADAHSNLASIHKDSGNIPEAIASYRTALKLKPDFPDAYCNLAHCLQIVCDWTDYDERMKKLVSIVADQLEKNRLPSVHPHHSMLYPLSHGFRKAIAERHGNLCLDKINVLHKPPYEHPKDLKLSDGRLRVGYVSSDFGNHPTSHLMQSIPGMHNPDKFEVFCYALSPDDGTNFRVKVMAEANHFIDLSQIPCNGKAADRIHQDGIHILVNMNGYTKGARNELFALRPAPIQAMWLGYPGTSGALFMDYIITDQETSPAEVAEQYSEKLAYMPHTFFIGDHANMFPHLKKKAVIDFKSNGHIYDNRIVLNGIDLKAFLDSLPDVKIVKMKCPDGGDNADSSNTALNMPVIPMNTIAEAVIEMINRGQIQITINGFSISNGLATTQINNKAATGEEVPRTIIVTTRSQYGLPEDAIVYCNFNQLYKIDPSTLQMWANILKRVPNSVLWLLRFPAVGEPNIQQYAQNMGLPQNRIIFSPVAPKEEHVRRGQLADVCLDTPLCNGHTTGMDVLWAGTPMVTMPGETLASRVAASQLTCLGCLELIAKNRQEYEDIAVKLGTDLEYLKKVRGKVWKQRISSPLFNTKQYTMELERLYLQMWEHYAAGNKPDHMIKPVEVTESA

[2] = molecular target: T1, Rluc8-OGT (O-GlcNAc transferase fused to Renilla luciferase Rluc8); assay: co-IP; HEK-293T cells co-transfected with Rluc8-OGT, YFP-OGA and control or Tax plasmid; lysate immunoprecipitated with anti-OGT antibody; OGA found in the immune complex by its enzymatic activity and YFP fluorescence
[3] = molecular target: T1, Rluc8-OGT (O-GlcNAc transferase fused to Renilla luciferase Rluc8); assay: FRET or BRET; living HEK-293T cells co-transfected with 300 ng of each cDNA (Rluc8 fusion as donor, YFP or YPet fusion as acceptor); BRET 48 h after transfection, in PBS with 5 uM coelenterazine, read at 485 and 530 nm; for OGT/OGA with control or Tax plasmid

Measured: binding

B1: YFP-OGA (O-GlcNAcase fused to YFP) (enzyme, UniProt O60502 1-916)
chain: MVQKESQATLEERESELSSNPAASAGASLEPPAAPAPGEDNPAGAGGAAVAGAAGGARRFLCGVVEGFYGRPWVMEQRKELFRRLQKWELNTYLYAPKDDYKHRMFWREMYSVEEAEQLMTLISAAREYEIEFIYAISPGLDITFSNPKEVSTLKRKLDQVSQFGCRSFALLFDDIDHNMCAADKEVFSSFAHAQVSITNEIYQYLGEPETFLFCPTEYCGTFCYPNVSQSPYLRTVGEKLLPGIEVLWTGPKVVSKEIPVESIEEVSKIIKRAPVIWDNIHANDYDQKRLFLGPYKGRSTELIPRLKGVLTNPNCEFEANYVAIHTLATWYKSNMNGVRKDVVMTDSEDSTVSIQIKLENEGSDEDIETDVLYSPQMALKLALTEWLQEFGVPHQYSSRQVAHSGAKASVVDGTPLVAAPSLNATTVVTTVYQEPIMSQGAALSGEPTTLTKEEEKKQPDEEPMDMVVEKQEETDHKNDNQILSEIVEAKMAEELKPMDTDKESIAESKSPEMSMQEDCISDIAPMQTDEQTNKEQFVPGPNEKPLYTAEPVTLEDLQLLADLFYLPYEHGPKGAQMLREFQWLRANSSVVSVNCKGKDSEKIEEWRSRAAKFEEMCGLVMGMFTRLSNCANRTILYDMYSYVWDIKSIMSMVKSFVQWLGCRSHSSAQFLIGDQEPWAFRGGLAGEFQRLLPIDGANDLFFQPPPLTPTSKVYTIRPYFPKDEASVYKICREMYDDGVGLPFQSQPDLIGDKLVGGLLSLSLDYCFVLEDEDGICGYALGTVDVTPFIKKCKISWIPFMQEKYTKPNGDKELSEAEKIMLSFHEEQEVLPETFLANFPSLIKMDIHKKVTDPSVAKSMMACLLSSLKANGSRGAFCEVRPDDKRILEFYSKLGCFEIAKMEGFPKDVVILGRSL
binds: [1] | [2] | [3]
